Experimental data published in US20040157214A1.
Results are given in words; binding and its absence hold for the method and conditions named.

Tests used:
Assay in all cases: phage ELISA, 100 ug/ml antigen
[1] = target: glyceraldehyde-3-phosphate dehydrogenase
[2] = target: keyhole limpet haemocyanin (keyhole limpet)
thyroglobulin = target: thyroglobulin
cytochrome C = target: cytochrome C
trypsin inhibitor = target: trypsin inhibitor

Measured: binding

B1: Lysozyme binder VH14.1 / VL14.1 (scFv, V domains shown)
VH: QVQLQESGPGLVKPSETLSLVCTVSGGSLSFSYWGWIRQPPGKGLEWIGYISHRGTDYNSSLQSRVTISADTSKNQFSLKLSSVTAADTAVYYCARSFSNSFFFGYWGQGT
VL: SSELTQDPAVSVAFGQTVRITCQGDSLRSSYASWYQQKPGQAPLLVIYGENSRPSGIPDRFSGSSSGNTASLTITGAQAEDEADYYCNSRDSRGTHLEVFGG
no binding: all assays above

B2: Lysozyme binder VH13.1 / VL13.1 (scFv, V domains shown)
VH: QVQLVQSGAEVKKPGQSLMISCQGSGYSFSNYWIGWVRQMPGKGLEWMGIIYPGDSDTRYSPSFQGQVTISADKSISTAYLHWSSLKASDTALYYCARLVGGTPAYWGQGT
VL: HVILTQPASVSGSPGQSITISCTGSSRDVGGYNYVSWYQHHPGKAPKLLISEVTNRPSGVSNRFSGSKSGNTASLTISGLQAEDEADYFCASYTSSKTYVFGG
no binding: all assays above
